Laboratory results reported in patent publication US5206254A, “β-carbonyl-carboxyamides of 1,3-thiazolidines” (Boehringer Mannheim Italia S.p.A., priority 1988, dated 1993).
At least one structure is not confirmed: it was looked up by name or label, or the drawing left a doubt.

Tested on: cough strokes, evokated by the two experimental models
Assay: In vivo experiments with naloxone in the two cough models
Design: species or system guinea pig
Conditions: naloxone 5 mg/Kg s.c. pretreatment; substance 30 mg/Kg os

COc1ccc2c3c1O[C@H]1[C@@H](O)C=C[C@H]4[C@@H](C2)N(C)CC[C@@]341 [Codeine phosphate, reference compound] was tested, and the “protective effect after naloxone pretreatment” value was “completely abolishes the protective effect”.
